Measurements taken from patent publication US5109111A (The Salk Institute for Biological Studies, priority 1990, dated 1992).
Some peptides are written in HELM: one residue between dots, names in brackets for other building blocks, links after the first $.

Assay: general procedure: Boc solid-phase peptide synthesis; MBHA hydrochloride resin (Bachem), substitution about 0.1 to 0.7 mmoles/gm; DCC; ONp active ester with HOBt for Asn or Gln
Settings: whole synthesis, isocratic reversed-phase HPLC (Waters, C18); thin layer chromatography

Substance | final purity (method not given)
H-D-2Nal-His-Leu-Leu-Arg-Glu-Val-Leu-Glu-Nle-Ala-Arg-A la-Glu-Gln-Leu-Ala-Gln-Gln-Ala-His-Leu-Asn-Arg-Lys-Leu -Nle-Glu-Ile-Ile-NH2 | about 60%
H-Phe-His-Leu-Leu-Arg-Glu-Val-Leu-Glu-Nle-Ala-Arg-Ala-G lu-Gln-Leu-Ala-Gln-Gln-Ala-His-Ser-Asn-Arg-Arg-Leu-N le-Glu-Ile-Ile-NH2 | about 98%
PEPTIDE1{D.L.T.F.H.L.L.R.E.V.L.E.[Nle].A.R.A.E.Q.L.A.Q.Q.A.H.S.N.R.K.L.[Nle].E.I.I.[am]}$$$$V2.0 | about 99%
PEPTIDE1{D.L.T.F.H.L.L.R.E.V.L.E.[Nle].A.R.A.E.Q.L.A.Q.Q.A.H.S.N.R.R.L.[Nle].E.I.I.[am]}$$$$V2.0 | about 99%
PEPTIDE1{F.H.L.L.R.E.V.L.E.[Nle].A.R.A.E.Q.L.A.Q.Q.A.H.S.N.R.K.L.[Nle].E.I.I.[am]}$$$$V2.0 | about 99%
PEPTIDE1{[dF].H.L.L.R.E.V.L.E.[Nle].A.R.A.E.Q.L.A.Q.Q.A.H.S.N.R.K.L.[Nle].E.I.I.[am]}$$$$V2.0 | about 95%
PEPTIDE1{[dF].H.L.L.R.E.V.L.E.[Nle].A.R.A.E.Q.L.A.Q.Q.A.H.S.N.R.K.[CML].[Nle].E.I.I.[am]}$$$$V2.0 | about 99%
PEPTIDE1{[dF].H.L.L.R.E.V.L.E.[Nle].A.R.A.E.Q.L.A.Q.Q.A.H.S.N.R.L.L.[Nle].E.I.I.[am]}$$$$V2.0 | about 68.2%
PEPTIDE1{[dF].H.L.L.R.E.V.L.E.[Nle].A.R.A.E.Q.L.A.Q.Q.A.H.S.N.R.R.L.[Nle].E.I.I.[am]}$$$$V2.0 | about 99%
